The results in this text go back to the supplement of paper PMC10849652.

Amino acid sequences for entries named in this document (tags omitted). A change or cut given only in a name is not applied to a line headed by its entry.
UniProt H7BZJ3: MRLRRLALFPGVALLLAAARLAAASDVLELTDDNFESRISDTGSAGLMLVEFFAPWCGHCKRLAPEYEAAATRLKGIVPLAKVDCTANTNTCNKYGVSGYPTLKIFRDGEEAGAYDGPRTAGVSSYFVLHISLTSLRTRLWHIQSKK
UniProt O95453: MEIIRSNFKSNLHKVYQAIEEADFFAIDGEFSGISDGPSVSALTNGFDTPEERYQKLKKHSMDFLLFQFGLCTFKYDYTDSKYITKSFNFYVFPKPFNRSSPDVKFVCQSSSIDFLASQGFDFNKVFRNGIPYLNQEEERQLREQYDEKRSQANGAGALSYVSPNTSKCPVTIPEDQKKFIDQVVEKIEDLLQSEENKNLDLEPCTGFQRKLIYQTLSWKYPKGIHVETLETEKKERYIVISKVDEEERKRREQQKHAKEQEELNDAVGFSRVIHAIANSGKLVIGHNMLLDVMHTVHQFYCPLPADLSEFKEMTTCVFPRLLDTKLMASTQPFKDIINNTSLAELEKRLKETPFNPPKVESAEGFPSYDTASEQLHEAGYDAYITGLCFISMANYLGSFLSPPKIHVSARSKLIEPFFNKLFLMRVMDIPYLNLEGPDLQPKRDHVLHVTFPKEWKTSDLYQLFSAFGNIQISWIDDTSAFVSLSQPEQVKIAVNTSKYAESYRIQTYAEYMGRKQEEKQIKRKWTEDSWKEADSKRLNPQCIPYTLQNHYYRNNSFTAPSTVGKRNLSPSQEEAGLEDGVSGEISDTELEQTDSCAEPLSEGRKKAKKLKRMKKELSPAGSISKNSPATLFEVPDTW
UniProt P08237: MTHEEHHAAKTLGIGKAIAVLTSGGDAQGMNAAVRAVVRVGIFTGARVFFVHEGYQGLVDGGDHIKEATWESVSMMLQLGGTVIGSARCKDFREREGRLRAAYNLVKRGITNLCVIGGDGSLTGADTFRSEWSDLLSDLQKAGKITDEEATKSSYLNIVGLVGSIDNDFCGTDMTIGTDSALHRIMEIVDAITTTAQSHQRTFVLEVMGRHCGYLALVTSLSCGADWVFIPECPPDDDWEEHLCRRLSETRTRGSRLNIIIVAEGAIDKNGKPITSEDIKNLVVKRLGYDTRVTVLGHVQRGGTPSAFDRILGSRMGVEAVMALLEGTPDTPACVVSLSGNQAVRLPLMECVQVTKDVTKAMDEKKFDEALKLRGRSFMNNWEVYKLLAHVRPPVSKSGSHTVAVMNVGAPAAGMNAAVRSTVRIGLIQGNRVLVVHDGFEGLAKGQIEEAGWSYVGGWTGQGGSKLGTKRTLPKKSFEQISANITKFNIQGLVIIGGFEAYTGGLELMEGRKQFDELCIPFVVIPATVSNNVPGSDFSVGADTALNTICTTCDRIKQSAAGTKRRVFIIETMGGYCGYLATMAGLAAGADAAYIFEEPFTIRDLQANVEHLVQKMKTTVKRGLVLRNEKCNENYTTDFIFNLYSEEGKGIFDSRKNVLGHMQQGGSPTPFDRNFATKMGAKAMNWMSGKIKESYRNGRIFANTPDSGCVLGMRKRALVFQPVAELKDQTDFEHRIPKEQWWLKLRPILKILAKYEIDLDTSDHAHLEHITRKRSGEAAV
UniProt Q9UKL6: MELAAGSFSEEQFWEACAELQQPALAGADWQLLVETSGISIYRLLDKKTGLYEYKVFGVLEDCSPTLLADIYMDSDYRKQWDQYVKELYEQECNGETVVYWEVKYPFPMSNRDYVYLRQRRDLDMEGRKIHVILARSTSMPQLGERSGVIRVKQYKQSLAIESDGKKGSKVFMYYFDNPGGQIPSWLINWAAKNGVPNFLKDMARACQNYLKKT
UniProt Q9NQP4, whole entry, looked up: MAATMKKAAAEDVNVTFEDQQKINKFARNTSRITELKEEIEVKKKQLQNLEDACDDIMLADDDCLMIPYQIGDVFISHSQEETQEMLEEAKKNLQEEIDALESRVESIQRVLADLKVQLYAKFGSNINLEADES
UniProt Q6L8Q7: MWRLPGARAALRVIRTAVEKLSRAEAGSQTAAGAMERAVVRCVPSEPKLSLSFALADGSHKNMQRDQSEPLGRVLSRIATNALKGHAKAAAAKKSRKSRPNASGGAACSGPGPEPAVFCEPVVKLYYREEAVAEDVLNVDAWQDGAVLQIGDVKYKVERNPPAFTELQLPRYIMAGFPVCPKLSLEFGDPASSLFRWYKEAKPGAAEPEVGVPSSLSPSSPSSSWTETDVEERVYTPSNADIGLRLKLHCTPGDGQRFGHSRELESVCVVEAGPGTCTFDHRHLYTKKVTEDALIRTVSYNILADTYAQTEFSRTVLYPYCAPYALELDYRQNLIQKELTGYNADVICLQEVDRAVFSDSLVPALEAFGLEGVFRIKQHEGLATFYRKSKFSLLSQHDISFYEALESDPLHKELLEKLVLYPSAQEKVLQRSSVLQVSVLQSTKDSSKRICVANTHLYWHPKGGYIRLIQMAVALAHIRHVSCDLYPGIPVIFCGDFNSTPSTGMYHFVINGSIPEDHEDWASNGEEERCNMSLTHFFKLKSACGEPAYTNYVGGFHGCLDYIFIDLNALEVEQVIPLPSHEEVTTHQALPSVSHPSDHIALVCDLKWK
UniProt O00408, whole entry, looked up: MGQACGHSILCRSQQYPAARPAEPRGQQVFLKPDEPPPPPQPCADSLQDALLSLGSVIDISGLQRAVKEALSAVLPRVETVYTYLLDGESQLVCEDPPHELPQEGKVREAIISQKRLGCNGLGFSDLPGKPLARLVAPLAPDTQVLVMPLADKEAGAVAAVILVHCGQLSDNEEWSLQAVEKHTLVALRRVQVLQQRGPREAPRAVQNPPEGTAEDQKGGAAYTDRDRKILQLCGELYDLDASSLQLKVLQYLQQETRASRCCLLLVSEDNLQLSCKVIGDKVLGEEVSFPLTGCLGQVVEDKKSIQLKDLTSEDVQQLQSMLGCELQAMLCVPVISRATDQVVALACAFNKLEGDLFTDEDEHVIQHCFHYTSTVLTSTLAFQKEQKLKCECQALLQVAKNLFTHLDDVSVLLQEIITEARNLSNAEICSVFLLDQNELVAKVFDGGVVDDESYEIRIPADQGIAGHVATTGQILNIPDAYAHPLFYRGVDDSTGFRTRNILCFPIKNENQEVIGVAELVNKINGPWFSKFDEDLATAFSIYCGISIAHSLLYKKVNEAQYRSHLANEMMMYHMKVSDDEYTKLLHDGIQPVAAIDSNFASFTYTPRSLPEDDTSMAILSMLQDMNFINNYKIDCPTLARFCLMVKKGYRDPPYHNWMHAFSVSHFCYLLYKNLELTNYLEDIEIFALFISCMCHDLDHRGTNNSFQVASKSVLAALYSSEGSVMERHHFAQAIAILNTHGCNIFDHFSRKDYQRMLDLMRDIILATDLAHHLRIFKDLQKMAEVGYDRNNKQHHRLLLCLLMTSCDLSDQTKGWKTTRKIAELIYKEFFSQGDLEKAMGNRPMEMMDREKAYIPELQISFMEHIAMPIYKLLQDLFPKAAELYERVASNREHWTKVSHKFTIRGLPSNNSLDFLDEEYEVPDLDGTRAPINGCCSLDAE
UniProt O15212, whole entry, looked up: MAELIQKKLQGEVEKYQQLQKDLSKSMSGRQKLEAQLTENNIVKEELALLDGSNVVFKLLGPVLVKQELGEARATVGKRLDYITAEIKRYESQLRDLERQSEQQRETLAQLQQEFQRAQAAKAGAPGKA
UniProt Q9NUG6, whole entry, looked up: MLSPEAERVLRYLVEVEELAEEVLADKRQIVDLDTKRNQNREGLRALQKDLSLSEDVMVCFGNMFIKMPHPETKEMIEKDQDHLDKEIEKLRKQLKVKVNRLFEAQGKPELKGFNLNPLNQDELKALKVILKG
UniProt P07737, whole entry, looked up: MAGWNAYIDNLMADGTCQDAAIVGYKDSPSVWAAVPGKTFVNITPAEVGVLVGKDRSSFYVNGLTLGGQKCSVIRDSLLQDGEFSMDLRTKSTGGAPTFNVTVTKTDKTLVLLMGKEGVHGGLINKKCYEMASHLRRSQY
UniProt O14737: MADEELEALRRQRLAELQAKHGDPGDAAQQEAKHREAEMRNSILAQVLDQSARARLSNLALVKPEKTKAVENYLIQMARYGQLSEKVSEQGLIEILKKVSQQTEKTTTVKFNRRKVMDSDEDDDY
UniProt Q460N5, whole entry, looked up: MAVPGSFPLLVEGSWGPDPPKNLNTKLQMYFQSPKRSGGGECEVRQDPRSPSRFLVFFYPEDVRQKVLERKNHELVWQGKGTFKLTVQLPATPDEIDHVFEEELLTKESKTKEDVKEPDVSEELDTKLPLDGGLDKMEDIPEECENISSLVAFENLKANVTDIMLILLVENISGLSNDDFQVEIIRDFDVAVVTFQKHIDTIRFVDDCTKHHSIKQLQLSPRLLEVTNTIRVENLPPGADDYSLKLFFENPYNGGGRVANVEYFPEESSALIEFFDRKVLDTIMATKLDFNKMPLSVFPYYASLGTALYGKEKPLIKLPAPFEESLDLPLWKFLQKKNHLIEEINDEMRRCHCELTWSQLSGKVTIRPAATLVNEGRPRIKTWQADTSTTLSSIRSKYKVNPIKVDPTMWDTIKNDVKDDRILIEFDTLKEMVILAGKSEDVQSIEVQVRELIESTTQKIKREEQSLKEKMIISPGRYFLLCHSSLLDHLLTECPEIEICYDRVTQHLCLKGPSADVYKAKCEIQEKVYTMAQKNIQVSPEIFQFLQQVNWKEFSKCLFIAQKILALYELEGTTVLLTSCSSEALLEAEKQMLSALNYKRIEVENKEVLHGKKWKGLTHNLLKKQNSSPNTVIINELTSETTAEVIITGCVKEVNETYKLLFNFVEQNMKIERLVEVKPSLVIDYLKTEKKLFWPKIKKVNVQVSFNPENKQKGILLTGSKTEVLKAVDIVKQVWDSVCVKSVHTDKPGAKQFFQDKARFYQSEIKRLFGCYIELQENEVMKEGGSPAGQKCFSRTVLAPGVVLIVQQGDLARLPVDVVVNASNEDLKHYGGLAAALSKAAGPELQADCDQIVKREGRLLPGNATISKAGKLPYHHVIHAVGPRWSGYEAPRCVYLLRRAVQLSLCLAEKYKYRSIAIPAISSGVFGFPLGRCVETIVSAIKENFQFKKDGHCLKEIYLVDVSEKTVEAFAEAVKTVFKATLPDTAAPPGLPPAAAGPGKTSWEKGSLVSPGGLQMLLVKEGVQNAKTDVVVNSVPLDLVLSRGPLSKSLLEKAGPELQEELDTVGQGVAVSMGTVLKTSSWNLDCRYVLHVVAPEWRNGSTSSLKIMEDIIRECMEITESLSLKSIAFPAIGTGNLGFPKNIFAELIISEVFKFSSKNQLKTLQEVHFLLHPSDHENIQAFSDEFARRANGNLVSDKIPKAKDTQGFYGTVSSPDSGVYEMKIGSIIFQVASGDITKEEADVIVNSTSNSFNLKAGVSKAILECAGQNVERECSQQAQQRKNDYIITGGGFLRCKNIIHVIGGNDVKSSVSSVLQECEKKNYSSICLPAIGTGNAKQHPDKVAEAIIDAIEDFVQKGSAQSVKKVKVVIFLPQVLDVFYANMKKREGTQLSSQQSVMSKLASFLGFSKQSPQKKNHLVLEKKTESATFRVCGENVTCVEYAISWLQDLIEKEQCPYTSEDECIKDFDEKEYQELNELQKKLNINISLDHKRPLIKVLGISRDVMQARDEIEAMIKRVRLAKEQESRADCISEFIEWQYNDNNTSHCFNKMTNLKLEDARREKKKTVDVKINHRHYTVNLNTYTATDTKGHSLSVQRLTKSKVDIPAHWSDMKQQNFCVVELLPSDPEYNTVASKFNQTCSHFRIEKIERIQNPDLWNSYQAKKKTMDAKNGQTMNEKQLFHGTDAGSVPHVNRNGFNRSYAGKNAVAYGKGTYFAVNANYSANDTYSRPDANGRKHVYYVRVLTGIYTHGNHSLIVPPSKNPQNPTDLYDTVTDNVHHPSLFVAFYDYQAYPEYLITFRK
UniProt P61457: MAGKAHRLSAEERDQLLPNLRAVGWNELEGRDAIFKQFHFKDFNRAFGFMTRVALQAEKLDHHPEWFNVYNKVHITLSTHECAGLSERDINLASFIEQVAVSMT
UniProt Q99471, whole entry, looked up: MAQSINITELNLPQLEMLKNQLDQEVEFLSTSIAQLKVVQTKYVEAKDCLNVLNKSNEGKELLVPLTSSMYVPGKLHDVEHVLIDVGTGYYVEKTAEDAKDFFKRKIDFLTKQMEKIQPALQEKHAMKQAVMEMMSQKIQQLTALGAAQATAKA
UniProt Q9BRX2, whole entry, looked up: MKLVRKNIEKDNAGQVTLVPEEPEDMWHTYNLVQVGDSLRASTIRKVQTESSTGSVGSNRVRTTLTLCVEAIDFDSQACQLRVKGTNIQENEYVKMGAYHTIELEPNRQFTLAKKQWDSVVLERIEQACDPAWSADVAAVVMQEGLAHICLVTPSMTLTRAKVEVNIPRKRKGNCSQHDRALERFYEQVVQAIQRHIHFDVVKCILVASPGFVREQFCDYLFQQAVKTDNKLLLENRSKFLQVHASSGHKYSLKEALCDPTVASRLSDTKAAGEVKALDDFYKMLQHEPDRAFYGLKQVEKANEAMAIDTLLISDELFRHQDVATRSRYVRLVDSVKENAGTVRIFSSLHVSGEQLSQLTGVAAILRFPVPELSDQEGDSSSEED
UniProt Q15121, whole entry, looked up: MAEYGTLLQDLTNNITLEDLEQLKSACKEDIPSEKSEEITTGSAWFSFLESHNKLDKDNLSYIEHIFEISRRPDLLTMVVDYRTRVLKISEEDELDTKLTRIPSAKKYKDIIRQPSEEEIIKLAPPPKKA

The other results are listed elsewhere or left out.

Compound in the first test: CNC(=O)C1=CC=CC=C1NC2=NC(=NC=C2Cl)NC3=C(C=C(C=C3)N4CCOCC4)OC
Nature of the test: log2 fold change, soluble protein after heating vs DMSO (PISA); higher = thermal stabilisation; K562 lysate, 10 uM; active = over 0.2 and 3.5 SD of the protein, either way, in both replicates (recomputed). In a few lines: (§1)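 To prepare the extract, K562 pellets were dounce-homogenised in PBS pH 7.4 with 1 mM MgCl2, giving crude material at 1 mg/mL protein. This was treated with 10 μM compound for 30 min, then heated in aliquots for 3 min over 48°C-58°C before pooling and addition of NP-40 to 0.5% at 4°C. Centrifugation at 21,000xg for 90 min left soluble protein in the supernatant, which TMTpro 16plex LC-MS/MS quantified with equalised channel sums. Results are log-two fold changes in thermal stability compared with solvent controls, from duplicates.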
Consider PDCL3 (UniProt Q9H2J4), for which the log2 fold change is inactive: 0.008.
Still for that read-out and setting: as for PATL1 (UniProt Q86TB9), the figure is inactive: 0.006; as for PDIA3 (UniProt H7BZJ3), inactive: -0.093.
On the same count and under the same terms, the same measure for PARN (UniProt O95453): inactive: -0.01.
The same measure, in the same setting: as for PEX5 isoform 4 (UniProt P50542), the figure is inactive: -0.05; as for PFKM isoform 3 (UniProt P08237), inactive: 0.046; as for PCTP (UniProt Q9UKL6), inactive: -0.021.
PCBP3 (UniProt P57721): the log2 fold change was inactive: 0.022.
With PDCD6IP (UniProt Q8WUM4), the log2 fold change was inactive: -0.002.
PDCL (UniProt Q13371): the log2 fold change was inactive: 0.008.
Consider PFDN4 (UniProt Q9NQP4), for which the log2 fold change is inactive: -0.074.
The same measure, in the same setting: the same measure for PCBP2 (UniProt H3BRU6): inactive: 0.082.
For PDCD6IP isoform 2 (UniProt Q8WUM4), the log2 fold change was inactive: -0.005.
As to PDIA4 (UniProt P13667), the log2 fold change was inactive: -0.008.
Consider PDE12 (UniProt Q6L8Q7), for which the log2 fold change is inactive: -0.006.
Turning to PCYT2 isoform 3 (UniProt Q99447), the log2 fold change is inactive: -0.004.
Take PDE2A (UniProt O00408): the log2 fold change is inactive: 0.044.
Take PCBP2 isoform 8 (UniProt Q15366): the log2 fold change was inactive: 0.022.
In the case of PFDN6 (UniProt O15212), the log2 fold change was inactive: 0.021.
As to PFDN2 (UniProt Q9UHV9), the log2 fold change was inactive: -0.035.
In the case of PDCD10 (UniProt Q9BUL8), the log2 fold change was inactive: 0.013.
In the case of PAXIP1 (UniProt Q6ZW49), the log2 fold change was inactive: 0.017.
With PDRG1 (UniProt Q9NUG6), the log2 fold change was inactive: 0.009.
With PFN1 (UniProt P07737), the log2 fold change was inactive: -0.007.
With PDCD5 (UniProt O14737), the log2 fold change was inactive: -0.003.
As to PAXBP1 (UniProt Q9Y5B6), the log2 fold change is inactive: 0.015.
As for PARP14 (UniProt Q460N5), the log2 fold change is inactive: -0.15.
Still for that read-out and setting: the same measure for PCBD1 (UniProt P61457): inactive: 0.011.
Take PFDN5 (UniProt Q99471): the log2 fold change was inactive: 0.03.
PCBP2 isoform 3 (UniProt Q15366): the log2 fold change is inactive: 0.017.
In the case of PDCD4 (UniProt Q53EL6), the log2 fold change was inactive: 0.017.
Take PELO (UniProt Q9BRX2): the log2 fold change was inactive: 0.026.
On to PEA15 isoform 2 (UniProt Q15121), for which the log2 fold change is inactive: 0.025.

Compound in another test: CNC(=O)c1ccc(Nc2ncc(C(F)(F)F)c(NCc3nccnc3N(C)S(C)(=O)=O)n2)cc1 [defactinib]
The test is described as above. In a few lines:
as §1
Consider PDCL3 (UniProt Q9H2J4), for which the log2 fold change was inactive: -0.026.
For the target PATL1 (UniProt Q86TB9), the log2 fold change was inactive: -0.027.
On to PDIA3 (UniProt H7BZJ3), for which the log2 fold change was inactive: -0.002.
Turning to PARN (UniProt O95453), the log2 fold change is inactive: -0.002.
For PEX5 isoform 4 (UniProt P50542), the log2 fold change was inactive: 0.044.
Take PFKM isoform 3 (UniProt P08237): the log2 fold change is inactive: -0.022.
As to PCTP (UniProt Q9UKL6), the log2 fold change was inactive: 0.027.
Same read-out and setting: as for PCBP3 (UniProt P57721), the figure is inactive: -0.039.
Same read-out and setting: as for PDCD6IP (UniProt Q8WUM4), the figure is inactive: -0.021; as for PDCL (UniProt Q13371), inactive: -0.046.
PFDN4 (UniProt Q9NQP4): the log2 fold change is inactive: 0.108.
In the case of PCBP2 (UniProt H3BRU6), the log2 fold change is inactive: 0.061.
Still for that read-out and setting: the same measure for PDCD6IP isoform 2 (UniProt Q8WUM4): inactive: -0.022; for PDIA4 (UniProt P13667): inactive: -0.042.
Take PDE12 (UniProt Q6L8Q7): the log2 fold change was inactive: 0.
Turning to PCYT2 isoform 3 (UniProt Q99447), the log2 fold change was inactive: -0.017.
Turning to PDE2A (UniProt O00408), the log2 fold change is inactive: -0.24.
On to PCBP2 isoform 8 (UniProt Q15366), for which the log2 fold change is inactive: 0.
Still for that read-out and setting: as for PFDN6 (UniProt O15212), the figure is inactive: 0.023; as for PFDN2 (UniProt Q9UHV9), inactive: 0.026.
Consider PDCD10 (UniProt Q9BUL8), for which the log2 fold change is inactive: 0.029.
On the same count and under the same terms, as for PAXIP1 (UniProt Q6ZW49), the figure is inactive: -0.048; as for PDRG1 (UniProt Q9NUG6), inactive: 0.043.
Consider PFN1 (UniProt P07737), for which the log2 fold change is inactive: 0.006.
For the target PDCD5 (UniProt O14737), the log2 fold change was inactive: -0.007.
Regarding PAXBP1 (UniProt Q9Y5B6), the log2 fold change was inactive: 0.005.
On to PARP14 (UniProt Q460N5), for which the log2 fold change is inactive: -0.007.
Regarding PCBD1 (UniProt P61457), the log2 fold change was inactive: -0.019.
On the same count and under the same terms, the same measure for PFDN5 (UniProt Q99471): inactive: 0.09.
As for PCBP2 isoform 3 (UniProt Q15366), the log2 fold change was inactive: 0.006.
PDCD4 (UniProt Q53EL6): the log2 fold change is inactive: 0.002.
With PELO (UniProt Q9BRX2), the log2 fold change was inactive: -0.022.
Turning to PEA15 isoform 2 (UniProt Q15121), the log2 fold change is inactive: 0.03.

Compound in the next test: CNc1nc(-c2ccc3c(N)n[nH]c3c2)cc(N2C[C@@H](C(=O)NC3CCCCC3)CC[C@H]2C)n1
The description is as above. In a few lines: as §1
With PDCL3 (UniProt Q9H2J4), the log2 fold change was inactive: 0.102.
For PATL1 (UniProt Q86TB9), the log2 fold change was inactive: 0.024.
As for PDIA3 (UniProt H7BZJ3), the log2 fold change is inactive: 0.007.
As to PARN (UniProt O95453), the log2 fold change was inactive: -0.016.
With PEX5 isoform 4 (UniProt P50542), the log2 fold change was inactive: 0.046.
As for PFKM isoform 3 (UniProt P08237), the log2 fold change is inactive: -0.026.
Same read-out and setting: the same measure for PCTP (UniProt Q9UKL6): inactive: -0.004.
As to PCBP3 (UniProt P57721), the log2 fold change was inactive: 0.042.
With PDCD6IP (UniProt Q8WUM4), the log2 fold change was inactive: -0.042.
Regarding PDCL (UniProt Q13371), the log2 fold change was inactive: 0.033.
Same read-out and setting: the same measure for PFDN4 (UniProt Q9NQP4): inactive: 0.007.
Regarding PCBP2 (UniProt H3BRU6), the log2 fold change was inactive: 0.018.
On the same count and under the same terms, the same measure for PDCD6IP isoform 2 (UniProt Q8WUM4): inactive: -0.02; for PDIA4 (UniProt P13667): inactive: -0.012.
On to PDE12 (UniProt Q6L8Q7), for which the log2 fold change is inactive: 0.027.
With PCYT2 isoform 3 (UniProt Q99447), the log2 fold change is inactive: -0.043.
In the case of PDE2A (UniProt O00408), the log2 fold change was inactive: 0.028.
Consider PCBP2 isoform 8 (UniProt Q15366), for which the log2 fold change was inactive: 0.079.
Same read-out and setting: as for PFDN6 (UniProt O15212), the figure is inactive: 0.037; as for PFDN2 (UniProt Q9UHV9), inactive: -0.012; as for PDCD10 (UniProt Q9BUL8), inactive: -0.005.
On the same count and under the same terms, as for PAXIP1 (UniProt Q6ZW49), the figure is inactive: 0.018; as for PDRG1 (UniProt Q9NUG6), inactive: 0.04; as for PFN1 (UniProt P07737), inactive: -0.024.
With PDCD5 (UniProt O14737), the log2 fold change was inactive: 0.031.
On the same count and under the same terms, as for PAXBP1 (UniProt Q9Y5B6), the figure is inactive: -0.004; as for PARP14 (UniProt Q460N5), inactive: -0.09; as for PCBD1 (UniProt P61457), inactive: 0.016.
In the case of PFDN5 (UniProt Q99471), the log2 fold change was inactive: 0.061.
For PCBP2 isoform 3 (UniProt Q15366), the log2 fold change is inactive: -0.075.
As to PDCD4 (UniProt Q53EL6), the log2 fold change was inactive: 0.019.
For the target PELO (UniProt Q9BRX2), the log2 fold change was inactive: -0.043.
PEA15 isoform 2 (UniProt Q15121): the log2 fold change is inactive: 0.019.
